Measurements published in patent publication EP4570793A1, “5-HT2A RECEPTOR INVERSE AGONIST, AND PREPARATION METHOD THEREFOR AND USE THEREOF” (Luye Innomind Pharma Shijiazhuang Co., Ltd., priority 2022, dated 2024).
For part of its entries the source gives two or more results. Only these are listed. The source may hold further records. The records of an entry differ for a reason that is not stated; they may come from other doses, times, organisms or constructs than stated.

Test system: SD rats
Assay: In-vivo pharmacodynamics: DOI-induced head twitch model
Settings: 1.0-1.5 h after administration, DOI 2.5 mg/kg i.p.

## CN1CCC(N(Cc2ccc(F)cc2)C(=O)NCc2ccc(OCC(F)(F)F)nc2)C(F)C1 (single isomer, unassigned) [Compound 68A]
0.66 mg/kg intragastric
  Number of head twitches: extremely significantly reduced and 3.7 ··
2.0 mg/kg intragastric
  Number of head twitches: extremely significantly reduced and 0.9 ··
